Here are results for one sequence from PMC4081072, “Structure and semi-sequence-specific RNA binding of Nrd1”.

Tags and fusion partners may be left off the protein sequences shown. A value given as a limit tells only on which side of the number the result lay.

In this series the target is T1, Nrd1 307-491 WT (Saccharomyces cerevisiae) (UniProt P53617).
T1 sequence (looked up): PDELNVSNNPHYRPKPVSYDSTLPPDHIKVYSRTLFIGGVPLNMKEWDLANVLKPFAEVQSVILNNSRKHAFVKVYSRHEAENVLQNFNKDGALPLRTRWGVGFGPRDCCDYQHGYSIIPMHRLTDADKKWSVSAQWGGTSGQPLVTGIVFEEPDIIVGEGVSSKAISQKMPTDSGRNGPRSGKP
Description: fluorescence anisotropy. To be noted: FA: 10 nM RNA, 50 mM sodium phosphate pH 8, 150 mM NaCl, 10 mM beta-mercaptoethanol, 20 C (protein stock in 300 mM NaCl); recombinant protein; residues 307-491; protein details: C-terminal His6; label: 5' fluorescein or TAMRA. On the technique in general: Polarisation of emitted light reports the rotation of a fluorescent probe.

On to CCCCCCC [C7], for which the Kd (as a rule, the equilibrium constant for the complex coming apart) is greater than 500 µM.
